{"source": "PubChem BioAssay AID1159578 (Peter MacCallum Cancer Centre, 2015)", "purpose": "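Genome-wide hunt for genes controlling movement of lymphatic endothelial cells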 (primary screen)", "cells": "human lymphatic endothelial cells", "reagent": "siRNA pool against human genes, 40 nM", "timing": "48 h after transfection", "measured": "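High-content imaging of dye-stained cells in a scratch assay measures filled wound area and nuclei per well; duplicate means given as ratio to mock and robust z-score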", "direction": "migration robust z-score: higher = faster migration into the scratch; nuclei per well: higher = more cells in the well", "hit rule": "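Migration changed when robust z exceeds 2 or falls below -2 and mean nuclei number is at least 3300; otherwise not called changed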", "meaning of the calls": "active = migration changed; inactive = no migration change, or too few cells", "note": "The deposit covers about 18,000 reagents; shown is a part drawn at random. About 1,030 of them (5.7%) were called active. 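Inactive calls also include pools with fewer than 3300 nuclei, whose migration was not assessed.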 Raw values are not corrected between plates. Not all columns of the deposit are shown."}
{"Target gene":"BDH2","PubChem SID":"SID255359147","migration robust z-score":-2.6,"migration class with cell-count check":"migration z below -2; enough cells","nuclei per well, duplicate mean":3850,"activity call":"active"}
{"Target gene":"AMY1A","PubChem SID":"SID255348299","migration robust z-score":-1.09,"migration class with cell-count check":"migration z between -2 and 2; enough cells","nuclei per well, duplicate mean":4605,"activity call":"inactive"}
{"Target gene":"MKKS","PubChem SID":"SID255353417","migration robust z-score":-1.69,"migration class with cell-count check":"migration z between -2 and 2; enough cells","nuclei per well, duplicate mean":5926,"activity call":"inactive"}
{"Target gene":"MYH13","PubChem SID":"SID255353775","migration robust z-score":-0.2,"migration class with cell-count check":"migration z between -2 and 2; enough cells","nuclei per well, duplicate mean":7287,"activity call":"inactive"}
{"Target gene":"ODAD2","PubChem SID":"SID255358433","migration robust z-score":2.13,"migration class with cell-count check":"migration z above 2; enough cells","nuclei per well, duplicate mean":6518,"activity call":"active"}
{"Target gene":"EDEM2","PubChem SID":"SID255358821","migration robust z-score":1.5,"migration class with cell-count check":"migration z between -2 and 2; enough cells","nuclei per well, duplicate mean":6072,"activity call":"inactive"}
{"Target gene":"PHLDB1","PubChem SID":"SID255356054","migration robust z-score":0.32,"migration class with cell-count check":"migration z between -2 and 2; enough cells","nuclei per well, duplicate mean":5800,"activity call":"inactive"}
{"Target gene":"RPN2","PubChem SID":"SID255352204","migration robust z-score":-1.78,"migration class with cell-count check":"migration z between -2 and 2; enough cells","nuclei per well, duplicate mean":5704,"activity call":"inactive"}
{"Target gene":"PXMP2","PubChem SID":"SID255351984","migration robust z-score":0.72,"migration class with cell-count check":"migration z between -2 and 2; enough cells","nuclei per well, duplicate mean":5945,"activity call":"inactive"}
{"Target gene":"IFT70A","PubChem SID":"SID255361979","migration robust z-score":-0.94,"migration class with cell-count check":"migration z between -2 and 2; enough cells","nuclei per well, duplicate mean":4086,"activity call":"inactive"}
{"Target gene":"TRMT1","PubChem SID":"SID255358726","migration robust z-score":0.18,"migration class with cell-count check":"migration z between -2 and 2; enough cells","nuclei per well, duplicate mean":4716,"activity call":"inactive"}
{"Target gene":"GJC1","PubChem SID":"SID255354769","migration robust z-score":-0.21,"migration class with cell-count check":"migration z between -2 and 2; enough cells","nuclei per well, duplicate mean":6439,"activity call":"inactive"}
{"Target gene":"SETD7","PubChem SID":"SID255360835","migration robust z-score":1.56,"migration class with cell-count check":"migration z between -2 and 2; enough cells","nuclei per well, duplicate mean":5896,"activity call":"inactive"}
{"Target gene":"NUCLEOLIN","PubChem SID":"SID255351155","migration robust z-score":2.79,"migration class with cell-count check":"migration z above 2; enough cells","nuclei per well, duplicate mean":7000,"activity call":"active"}
{"Target gene":"ZBTB21","PubChem SID":"SID255357318","migration robust z-score":1.72,"migration class with cell-count check":"migration z between -2 and 2; enough cells","nuclei per well, duplicate mean":6310,"activity call":"inactive"}
{"Target gene":"CSNK1G3","PubChem SID":"SID255349130","migration robust z-score":-3.38,"migration class with cell-count check":"migration z below -2; enough cells","nuclei per well, duplicate mean":3527,"activity call":"active"}
{"Target gene":"SLCO1C1","PubChem SID":"SID255357952","migration robust z-score":-0.39,"migration class with cell-count check":"migration z between -2 and 2; enough cells","nuclei per well, duplicate mean":6568,"activity call":"inactive"}
{"Target gene":"C11orf40","PubChem SID":"SID255363189","migration robust z-score":1.53,"migration class with cell-count check":"migration z between -2 and 2; enough cells","nuclei per well, duplicate mean":7022,"activity call":"inactive"}
{"Target gene":"RNF17","PubChem SID":"SID255359041","migration robust z-score":1.32,"migration class with cell-count check":"migration z between -2 and 2; enough cells","nuclei per well, duplicate mean":6962,"activity call":"inactive"}
{"Target gene":"BACH2","PubChem SID":"SID255359709","migration robust z-score":0.64,"migration class with cell-count check":"migration z between -2 and 2; enough cells","nuclei per well, duplicate mean":5474,"activity call":"inactive"}
{"Target gene":"SLC7A10","PubChem SID":"SID255359075","migration robust z-score":-0.75,"migration class with cell-count check":"migration z between -2 and 2; enough cells","nuclei per well, duplicate mean":5604,"activity call":"inactive"}
{"Target gene":"NAPRT","PubChem SID":"SID255362057","migration robust z-score":2.1,"migration class with cell-count check":"migration z above 2; enough cells","nuclei per well, duplicate mean":6957,"activity call":"active"}
{"Target gene":"NICN1","PubChem SID":"SID255361292","migration robust z-score":1.91,"migration class with cell-count check":"migration z between -2 and 2; enough cells","nuclei per well, duplicate mean":5136,"activity call":"inactive"}
{"Target gene":"NRIP1","PubChem SID":"SID255353420","migration robust z-score":-0.44,"migration class with cell-count check":"migration z between -2 and 2; enough cells","nuclei per well, duplicate mean":5630,"activity call":"inactive"}
{"Target gene":"PIH1D2","PubChem SID":"SID255362494","migration robust z-score":0.48,"migration class with cell-count check":"migration z between -2 and 2; enough cells","nuclei per well, duplicate mean":6098,"activity call":"inactive"}
{"Target gene":"OR2AG1","PubChem SID":"SID255363208","migration robust z-score":-0.6,"migration class with cell-count check":"migration z between -2 and 2; enough cells","nuclei per well, duplicate mean":5795,"activity call":"inactive"}
{"Target gene":"MAL2","PubChem SID":"SID255362224","migration robust z-score":-0.62,"migration class with cell-count check":"migration z between -2 and 2; enough cells","nuclei per well, duplicate mean":5190,"activity call":"inactive"}

Records listed so far whose gene name starts with M or m:
{"Target gene":"MKKS","PubChem SID":"SID255353417","migration robust z-score":-1.69,"migration class with cell-count check":"migration z between -2 and 2; enough cells","nuclei per well, duplicate mean":5926,"activity call":"inactive"}
{"Target gene":"MYH13","PubChem SID":"SID255353775","migration robust z-score":-0.2,"migration class with cell-count check":"migration z between -2 and 2; enough cells","nuclei per well, duplicate mean":7287,"activity call":"inactive"}
{"Target gene":"MAL2","PubChem SID":"SID255362224","migration robust z-score":-0.62,"migration class with cell-count check":"migration z between -2 and 2; enough cells","nuclei per well, duplicate mean":5190,"activity call":"inactive"}
